PubChem BioAssay AID1159578 – Peter MacCallum Cancer Centre, 2015

Screen: 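Knock-downs that alter how fast lymphatic endothelial cells migrate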 (primary screen)
Cell system: human lymphatic endothelial cells
Reagent: siRNA pool against human genes, 40 nM
Timing: 48 h after transfection
Measured: 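High-content imaging of dye-stained cells in a scratch assay measures filled wound area and nuclei per well; duplicate means given as ratio to mock and robust z-score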
Direction: migration robust z-score: higher = faster migration into the scratch; nuclei per well: higher = more cells in the well
Hit rule: 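Migration changed when robust z exceeds 2 or falls below -2 and mean nuclei number is at least 3300; otherwise not called changed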
Calls: active = migration changed; inactive = no migration change, or too few cells
The deposit covers about 18,000 reagents; this is an unselected part. About 1,030 of all reagents (5.7%) were called active. 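Inactive calls also include pools with fewer than 3300 nuclei, whose migration was not assessed.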 Raw values vary from plate to plate and are shown uncorrected. Entries without a mark were called inactive. The numbers tell different reagents against one gene apart. Not all columns of the deposit are shown.

| gene | reagent | migration robust z-score | nuclei per well, duplicate mean |
| --- | --- | --- | --- |
| ABCD1 (ATP binding cassette subfamily D member 1) | 1 | 0.13 | 5803 |
| KIFC1 (kinesin family member C1) | 1 | -0.94 | 4130 |
| PLD4 (phospholipase D family member 4) | 1 | 1.85 | 5115 |
| IQGAP3 (IQ motif containing GTPase activating protein 3) | 1 | 2.16 (active) | 5616 |
| CYP1A1 (cytochrome P450 family 1 subfamily A member 1) | 1 | -2.67 (active) | 5638 |
| MAPK4 (mitogen-activated protein kinase 4) | 1 | -5.86 | 1436 |
| METTL21A (methyltransferase 21A, HSPA lysine) | 1 | 0.05 | 6292 |
| KCTD21 (potassium channel tetramerization domain containing 21) | 1 | -1 | 5882 |
| FMO5 (flavin containing dimethylaniline monoxygenase 5) | 1 | 0.52 | 5660 |
| H2BC11 (H2B clustered histone 11) | 1 | -0.06 | 4690 |
| RSPH9 (radial spoke head component 9) | 1 | 2.69 (active) | 6385 |
| RITA1 (RBPJ interacting and tubulin associated 1) | 1 | 0.22 | 6324 |
| DCAF8L1 (DDB1 and CUL4 associated factor 8 like 1) | 1 | -0.86 | 3388 |
| USP46 (ubiquitin specific peptidase 46) | 1 | 1.01 | 5400 |
| ASAH2B (N-acylsphingosine amidohydrolase 2B) | 1 | -0.76 | 5516 |
| OR51S1 (olfactory receptor family 51 subfamily S member 1) | 1 | -0.69 | 6279 |
| NPSR1 (neuropeptide S receptor 1) | 1 | 1.17 | 7044 |
| TRIM2 (tripartite motif containing 2) | 1 | 0.83 | 6830 |
| SERTAD4 (SERTA domain containing 4) | 1 | 1.91 | 6832 |
| MC3R (melanocortin 3 receptor) | 1 | -0.96 | 7396 |
| PDE4D (phosphodiesterase 4D) | 1 | -0.62 | 4352 |
| PRELID2 (PRELI domain containing 2) | 1 | -0.34 | 5974 |
| DNAJB14 (DnaJ heat shock protein family (Hsp40) member B14) | 1 | 1.35 | 6270 |
| SPATC1L (spermatogenesis and centriole associated 1 like) | 1 | -1.02 | 2912 |
| VPS53 (VPS53 subunit of GARP complex) | 1 | -0.2 | 5452 |
| YIPF6 (Yip1 domain family member 6) | 1 | 1.34 | 6823 |
| QTGAL (queuosine-tRNA galactosyltransferase) | 1 | 1.04 | 6020 |
| XKR6 (XK related 6) | 1 | 0.9 | 5310 |
| PLOD3 (procollagen-lysine,2-oxoglutarate 5-dioxygenase 3) | 1 | -1.17 | 4368 |
| LILRB5 (leukocyte immunoglobulin like receptor B5) | 1 | 0.72 | 5564 |
| CHST7 (carbohydrate sulfotransferase 7) | 1 | -1.42 | 5808 |
| ATP5PO (ATP synthase peripheral stalk subunit OSCP) | 1 | -0.68 | 5300 |
| GPD1L (glycerol-3-phosphate dehydrogenase 1 like) | 1 | 0.75 | 4867 |
| ACP4 (acid phosphatase 4) | 1 | -0.6 | 5516 |
| RNF123 (ring finger protein 123) | 1 | 0.44 | 6854 |
| EBAG9 (estrogen receptor binding site associated antigen 9) | 1 | -0.12 | 7446 |
| LINC00471 (long independently transcribed non-coding RNA 471) | 1 | -0.44 | 6132 |
| CNKSR2 (connector enhancer of kinase suppressor of Ras 2) | 1 | 0.42 | 6351 |
| CYP17A1 (cytochrome P450 family 17 subfamily A member 1) | 1 | 0.42 | 6447 |
| TRIM4 (tripartite motif containing 4) | 1 | 0.8 | 5226 |
| MED29 (mediator complex subunit 29) | 1 | 0.7 | 7934 |
| NPS (neuropeptide S) | 1 | 0.84 | 6097 |
| TRAM2 (translocation associated membrane protein 2) | 1 | -0.34 | 5056 |
| FN3K (fructosamine 3 kinase) | 1 | -1.09 | 4709 |

11 entries from above, ordered by “nuclei per well, duplicate mean”, highest first.
| gene | reagent | migration robust z-score | nuclei per well, duplicate mean |
| --- | --- | --- | --- |
| MC3R (melanocortin 3 receptor) | 1 | -0.96 | 7396 |
| NPSR1 (neuropeptide S receptor 1) | 1 | 1.17 | 7044 |
| SERTAD4 (SERTA domain containing 4) | 1 | 1.91 | 6832 |
| TRIM2 (tripartite motif containing 2) | 1 | 0.83 | 6830 |
| YIPF6 (Yip1 domain family member 6) | 1 | 1.34 | 6823 |
| OR51S1 (olfactory receptor family 51 subfamily S member 1) | 1 | -0.69 | 6279 |
| DNAJB14 (DnaJ heat shock protein family (Hsp40) member B14) | 1 | 1.35 | 6270 |
| PRELID2 (PRELI domain containing 2) | 1 | -0.34 | 5974 |
| VPS53 (VPS53 subunit of GARP complex) | 1 | -0.2 | 5452 |
| PDE4D (phosphodiesterase 4D) | 1 | -0.62 | 4352 |
| SPATC1L (spermatogenesis and centriole associated 1 like) | 1 | -1.02 | 2912 |

Next results follow.
| gene | reagent | migration robust z-score | nuclei per well, duplicate mean |
| --- | --- | --- | --- |
| BTG3 (BTG anti-proliferation factor 3) | 1 | -0.69 | 5466 |
| ATP6V1E2 (ATPase H+ transporting V1 subunit E2) | 1 | -1.43 | 5532 |
| CGB1 (chorionic gonadotropin subunit beta 1) | 1 | -0.96 | 5898 |
| AGAP6 (ArfGAP with GTPase domain, ankyrin repeat and PH domain 6) | 1 | 1.01 | 6501 |
| UBE2D1 (ubiquitin conjugating enzyme E2 D1) | 1 | 1.5 | 4827 |
| NFE4 (nuclear factor, erythroid 4) | 1 | 0.88 | 6008 |
| NAP1L4 (nucleosome assembly protein 1 like 4) | 1 | 0.18 | 3782 |
| STATH (statherin) | 1 | -1.21 | 4766 |
| PPP1R21 (protein phosphatase 1 regulatory subunit 21) | 1 | -0.26 | 6312 |
| COL7A1 (collagen type VII alpha 1 chain) | 1 | 1.33 | 4166 |
| ZNF429 (zinc finger protein 429) | 1 | -0.25 | 5842 |
| DDA1 (DET1 and DDB1 associated 1) | 1 | -1.09 | 5593 |
| TINAGL1 (tubulointerstitial nephritis antigen like 1) | 1 | 0.99 | 7880 |
| PDGFRA (platelet derived growth factor receptor alpha) | 1 | -0.62 | 4919 |
| OR5AK2 (olfactory receptor family 5 subfamily AK member 2) | 1 | -0.3 | 5772 |
| GPR63 (G protein-coupled receptor 63) | 1 | 0.24 | 5089 |
| VCF2 (VCP nuclear cofactor family member 2) | 1 | -1.99 | 3135 |
| USP50 (ubiquitin specific peptidase 50) | 1 | 0.8 | 6280 |
| FBXL13 (F-box and leucine rich repeat protein 13) | 1 | 1.69 | 5993 |
| KHK (ketohexokinase) | 1 | -0.88 | 4596 |
| DONSON (DNA replication fork stabilization factor DONSON) | 1 | 0.6 | 3770 |
| FBL (fibrillarin rRNA 2'-O-methyltransferase) | 1 | -0.12 | 5738 |
| PM20D1 (peptidase M20 domain containing 1) | 1 | -0.78 | 5891 |
| LAMP5 (lysosome associated membrane protein 5) | 1 | -0.02 | 5964 |
| CHP2 (calcineurin like EF-hand protein 2) | 1 | -0.1 | 5285 |
| MANBA (mannosidase beta) | 1 | 0.5 | 5584 |
| GJD2 (gap junction protein delta 2) | 1 | -0.96 | 6528 |
| MICAL2 | 1 | -3.21 (active) | 5662 |
| MICAL2 | 2 | -1.65 | 4762 |
